Data taken from ChEMBL document CHEMBL3988442, “University of Dundee, Small-Polar-MMV Screening Library” (2021).

Protein sequences, listed by entry. Tags and fused reporters are not part of them. Residues count along the entry.
UniProt Q8IDJ8, 1-583: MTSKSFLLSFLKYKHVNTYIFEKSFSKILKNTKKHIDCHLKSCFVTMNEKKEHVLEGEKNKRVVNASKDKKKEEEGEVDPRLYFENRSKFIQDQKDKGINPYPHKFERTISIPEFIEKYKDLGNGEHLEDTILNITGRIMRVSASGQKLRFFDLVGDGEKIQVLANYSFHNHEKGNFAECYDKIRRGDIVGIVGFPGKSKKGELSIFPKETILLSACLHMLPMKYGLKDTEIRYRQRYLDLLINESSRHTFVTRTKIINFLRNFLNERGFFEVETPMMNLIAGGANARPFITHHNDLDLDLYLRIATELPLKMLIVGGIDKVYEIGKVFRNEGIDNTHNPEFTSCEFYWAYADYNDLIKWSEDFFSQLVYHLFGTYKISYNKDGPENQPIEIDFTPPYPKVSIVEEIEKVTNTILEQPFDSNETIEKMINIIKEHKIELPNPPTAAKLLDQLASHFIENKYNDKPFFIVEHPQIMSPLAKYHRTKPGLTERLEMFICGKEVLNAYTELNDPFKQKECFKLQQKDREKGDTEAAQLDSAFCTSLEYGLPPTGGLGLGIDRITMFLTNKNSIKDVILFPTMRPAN
UniProt P9WFT3, whole entry: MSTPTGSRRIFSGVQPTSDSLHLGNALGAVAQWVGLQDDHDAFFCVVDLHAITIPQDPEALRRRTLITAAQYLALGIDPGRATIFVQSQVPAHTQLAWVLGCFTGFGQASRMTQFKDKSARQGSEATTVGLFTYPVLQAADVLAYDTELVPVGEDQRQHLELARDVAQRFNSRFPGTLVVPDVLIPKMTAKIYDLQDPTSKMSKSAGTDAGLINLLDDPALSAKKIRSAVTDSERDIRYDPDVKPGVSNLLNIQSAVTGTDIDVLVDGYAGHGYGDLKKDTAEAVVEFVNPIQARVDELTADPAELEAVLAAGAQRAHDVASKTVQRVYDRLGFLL

A: 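Lysine-tRNA ligase, Plasmodium falciparum 3D7 (UniProt Q8IDJ8). Enzyme assay of the cytosolic lysyl-tRNA synthetase in 384-well plates, read by luminescence. Compounds at 30 µM. Higher reads as stronger inhibition, judged from the few compounds that gave an IC50. Of about 69,000 compounds tested this way, about 49 (0.071%) reached 50% or more in at least one test.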
B: 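Enzyme assay of tryptophanyl-tRNA synthetase; the read-out is not stated. Target: Tryptophan-tRNA ligase, Mycobacterium tuberculosis (UniProt P9WFT3). Concentration: 10 µM. Direction is not recorded; retested compounds ran higher, which suggests that high means inhibition. Of about 65,000 compounds tested this way, about 64 (0.098%) reached 50% or more in at least one test.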

Each number is a percent effect as filed.
How 0% and 100% were set is not recorded. Most values in the screen are low, and negative values occur.
This is an unselected part of the compounds tested.

Cc1noc(C)c1CN1CCO[C@H]2CNC[C@H]21 read A: 3.681%; B: -0.8629%. CN(C)CCNC(=O)c1nc2c(o1)CN(C(=O)c1cccnc1)C2 read A: 4.736%; B: 7.486%. CC(C)(O)CSCCNC(=O)c1cc(F)ccc1F read A: -3.97%; B: 2.235%. For Cc1[nH]c(=O)sc1S(=O)(=O)N1CCCC1C(=O)NC1CC1 (centres undefined) the result was A: 1.967%; B: -1.5%. CCS(=O)(=O)N1CC[C@H](OC)[C@@H]1Cc1ccncc1 gave A: -3.644%; B: -1.482%. COc1cccc(C2CCN(c3ccc4cc[nH]c4n3)C2)c1OC (centres undefined) gave A: 7.897%; B: -6.871%.

Result for O=C(c1ccc(C2CCCO2)s1)N1CCS(=O)(=O)CC1 (centres undefined) was A: 0.4857%; B: 0.8514%. COc1ccc([C@@H](C)n2ccnc2-c2cc3n(n2)CCCNC3)cc1 gave A: 0.2104%; B: 0.4295%. With CCN1CC2(CCC1=O)CCN(Cc1nncn1C(C)C)CC2 the screen gave A: 2.385%; B: 2.27%. With Cc1n[nH]c2c1C(c1cccnc1)SCC(=O)N2 (centres undefined) the screen gave A: 1.678%; B: 1.711%. COc1ccc(C2(NCc3noc(C4CC4)n3)CCOCC2)cc1 gave A: 2.57%; B: 0.6686%. For OC(COCc1ccco1)CN1CCC(Cn2cccn2)CC1 (centres undefined) the result was A: -0.7733%; B: -6.236%.

For Cn1nc(C2CCCN(Cc3cccc(F)c3)C2)c2nccnc21 (centres undefined) the result was A: 3.766%; B: 0.2508%. Result for O=C(NC[C@H]1CC[C@H](c2nnc(-c3cccnc3)o2)CC1)C1CC1 was A: 1.358%; B: 4.606%. CSc1ccc(-c2nc(CN3CCNCC3C)c(C)o2)cc1 (centres undefined) read A: 4.999%; B: -0.8961%. For CCNc1cc2c(nn1)CCN(C(=O)c1cccc(CSC)c1)C2 the result was A: -0.1489%; B: -2.448%. With Cc1nc(C(C)C)sc1C(=O)NCCSc1nccn1C the screen gave A: 12.88%; B: 4.083%. With CCCC(=O)N1CCC(Nc2nc(O)cc(-c3ccsc3)n2)CC1 the screen gave A: 1.763%; B: -2.263%.

CC(=O)N1CCCC1c1cccc(Cc2ccccc2F)n1 (centres undefined) gave A: -10.72%; B: -4.431%. CSc1ncccc1C(=O)Nc1ccc(Cn2ccccc2=O)cc1 read A: 0.1775%; B: 2.877%. COc1cccc(CNc2c(C)cnc3c2c(=O)n(C)c(=O)n3C)c1 read A: -0.4984%; B: -3.778%. With CC(c1nc(C2CC2)no1)N(C)Cc1cccc(F)c1 (centres undefined) the screen gave A: 1.287%; B: -3.44%. O=C(c1ccncn1)N1C[C@H]2CCC[C@@]2(COCC2CCOCC2)C1 gave A: 0.2697%; B: 1.451%. Cc1nc(O)c2nnn(C[C@H]3CCCN3C(=O)c3ccc(F)cc3)c2n1 read A: -0.6515%.

For COCCN1C(=O)CC[C@@H]2[C@@H]1CCN2S(=O)(=O)C1CC1 the result was A: 5.6%. O=c1cc(-c2ccccc2)nc2n1CCCCC2 gave A: -0.1811%; B: 0.8039%. For Cc1ccoc1C(=O)N1CCO[C@H]2[C@H](OCC3CCOCC3)CC[C@@H]21 the result was A: 1.851%; B: 0.9444%. Result for Cc1nc(N2CCC(C(O)c3nccn3C)CC2)c2cccnc2n1 (centres undefined) was A: 0.4131%; B: -0.1903%. For Cn1c(CO)cnc1SC(C(=O)NC1CC1)c1ccccc1 (centres undefined) the result was A: 5.714%; B: -5.635%. O=C(NCc1cccnc1N1CCc2ccccc2C1)c1cnc[nH]1 gave A: 3.299%; B: -3.069%.

Result for CN(C1CCCCC1)S(=O)(=O)NCC1Cc2ccccc2O1 (centres undefined) was A: 3.869%; B: 2.556%. Result for CNC(=O)c1cccc(CCNC(=O)N2CCc3ccccc3C2)c1 was A: -2.191%; B: -1.356%. COc1ccc(CN2CCC(C(N)=O)C2)c(Br)c1OC (centres undefined) gave A: 3.935%; B: -1.052%. With O=C1NC[C@]2(CC[C@@H](C(=O)N3CCCC(O)C3)CC2)Oc2ccccc21 (some centres undefined) the screen gave A: 0.8357%; B: -5.02%. CCn1cnnc1CNC(=O)NC(C)C(C)C (centres undefined) read A: 12.42%; B: 1.679%. With O=C(c1cc(C2CC2)[nH]n1)N1CCN(Cc2ccc(Cl)cc2)CC1 the screen gave A: 7.688%; B: 1.847%.

Result for O=C(c1ccc(F)c(F)c1)N1CCC[C@]2(C[C@@H](OCC3CC3)CO2)C1 was A: 4.523%; B: -7.349%. CCn1cc(N2Cc3nc(N(C)C)ncc3C2=O)cn1 gave A: -2.63%; B: 5.699%. CCn1cnnc1C1CCN(C(=O)Cc2ccc(OC)c(F)c2)CC1 read A: 2.433%; B: -0.0783%. For COc1ccc(OC)c(CCNC(=O)CCC2CCCO2)c1 (centres undefined) the result was A: -1.877%; B: -3.054%. Cc1cc(C)c(C(=O)N[C@H](C(N)=O)c2ccccc2)c(=O)[nH]1 read A: -2.486%; B: -2.129%.

5 of the entries, repeated:

* CSc1ncccc1C(=O)Nc1ccc(Cn2ccccc2=O)cc1 : A: 0.1775%; B: 2.877%
* Cc1noc(C)c1CN1CCO[C@H]2CNC[C@H]21 : A: 3.681%; B: -0.8629%
* CCN1CC2(CCC1=O)CCN(Cc1nncn1C(C)C)CC2 : A: 2.385%; B: 2.27%
* Cc1n[nH]c2c1C(c1cccnc1)SCC(=O)N2 (centres undefined) : A: 1.678%; B: 1.711%
* Cc1nc(O)c2nnn(C[C@H]3CCCN3C(=O)c3ccc(F)cc3)c2n1 : A: -0.6515%